Source: paper PMC7880690, “Chemical genetics and proteome-wide site mapping reveal cysteine MARylation by PARP-7 on immune-relevant protein targets” (eLife, 2021)
Results are given in words; binding and its absence hold for the method and conditions named. Binding seen in cells or lysates may run through a third protein. A yes stands for co-enrichment or nearness to the bait. Other partners may have been found. Sequences can lack the tags named with a protein.

Molecular target: T1, Myc-BirA*-WT-PARP-7 (UniProt Q7Z3E1)
T1 sequence: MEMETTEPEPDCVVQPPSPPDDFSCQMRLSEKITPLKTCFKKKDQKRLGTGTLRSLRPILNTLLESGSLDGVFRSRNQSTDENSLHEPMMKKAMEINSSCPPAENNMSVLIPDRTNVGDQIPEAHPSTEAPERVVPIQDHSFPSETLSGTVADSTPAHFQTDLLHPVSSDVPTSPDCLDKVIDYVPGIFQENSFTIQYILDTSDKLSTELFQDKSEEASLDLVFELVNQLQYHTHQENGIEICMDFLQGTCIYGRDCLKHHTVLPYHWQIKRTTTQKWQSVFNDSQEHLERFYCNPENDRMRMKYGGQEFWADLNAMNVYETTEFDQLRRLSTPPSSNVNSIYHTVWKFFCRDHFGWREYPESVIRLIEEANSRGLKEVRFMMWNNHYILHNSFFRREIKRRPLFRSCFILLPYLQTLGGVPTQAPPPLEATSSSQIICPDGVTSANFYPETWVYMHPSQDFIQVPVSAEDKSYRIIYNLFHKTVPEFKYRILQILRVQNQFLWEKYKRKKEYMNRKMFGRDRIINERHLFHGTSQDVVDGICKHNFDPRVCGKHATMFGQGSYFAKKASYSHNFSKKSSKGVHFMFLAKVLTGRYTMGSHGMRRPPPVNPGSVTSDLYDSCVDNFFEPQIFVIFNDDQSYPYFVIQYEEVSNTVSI
Experiment: proximity labelling; BioID in HEK 293T cells transfected with Myc-BirA*-PARP-7; biotin 50 μM; biotinylated proteins enriched on Neutravidin agarose; Western blot with an antibody against PARP-13

binding: binds
Substance: PARP-13.1 (endogenous) (from UniProt Q7Z2W4-1 1-902)
